The test system of this experiment is BDF1 mice, B16 melanoma ip, median survival T/C. Put plainly: NCI In Vivo Anticancer Drug Screen. Data for tumor model B16 Melanoma (intraperitoneal) in B6D2F1 (BDF1) mice. As to conditions: T/C endpoint: median survival time, higher T/C = longer survival. In outline: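 Tumor-bearing mice received test compound or vehicle. Survival or tumor size was then measured in both groups. The treated-group figure was divided by the control-group figure.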

Setting [1] is: dose: 100.0 mg/kg/injection, schedule: Q01DX009 (ip), vehicle: saline with Tween-80.
Setting [2] is: dose: 200.0 mg/kg/injection, schedule: Q01DX009 (ip), vehicle: saline with Tween-80.
Where [3] appears, read: dose: 400.0 mg/kg/injection, schedule: Q01DX009 (ip), vehicle: saline with Tween-80.
Setting [4] is: dose: 50.0 mg/kg/injection, schedule: Q01DX009 (ip), vehicle: saline with Tween-80.
The mark [5] stands for this setting: dose: 2.0 mg/kg/injection, schedule: Q01DX009 (ip), vehicle: saline.
[6] abbreviates: dose: 400.0 mg/kg/injection, schedule: Q01DX009 (ip), vehicle: saline.
Where [7] appears, read: dose: 100.0 mg/kg/injection, schedule: Q01DX009 (ip), vehicle: Klucel (hydroxypropylcellulose) (HPC).
[8] abbreviates: dose: 200.0 mg/kg/injection, schedule: Q01DX009 (ip), vehicle: Klucel (hydroxypropylcellulose) (HPC).
Where [9] appears, read: dose: 20.0 mg/kg/injection, schedule: Q01DX009 (ip), vehicle: saline with Tween-80.
Setting [10] is: dose: 50.0 mg/kg/injection, schedule: Q04DX003 (ip), vehicle: saline with Tween-80.
Where [11] appears, read: dose: 100.0 mg/kg/injection, schedule: Q04DX003 (ip), vehicle: saline with Tween-80.
[12] abbreviates: dose: 12.5 mg/kg/injection, schedule: Q01DX009 (ip), vehicle: saline.

SMILES strings stand for the structures. The list shows only some results of the screen, not a fair sample: it is rich in T/C values a quarter to a half above the control, in often repeated tests (any T/C) and in doses without a T/C. Other doses and runs of a compound stand elsewhere. T/C: endpoint of the treated group in % of that of the vehicle group. Some doses have a count of surviving animals in place of a T/C: the source files T/C as zero there, which appears to mark a toxic dose or a test without result, not a measured value. Some survivor counts are full or nearly so, which does not show that the dose was tolerated: survival well below the control is almost never listed, so the zero probably covers shortened survival too. Survivors were counted at the toxicity check, usually on the fifth day, unless a day is given; later deaths do not show. Schedule codes are those of the source, taken here to give the interval after Q, in days (D) or hours (H), and the number of doses after X. Some entries were tested several times; the results are listed from low to high. Counts like (3×) stand for listed records that agree. Where survival is the endpoint, the PubChem record calls one and a half times the control and up active, and a quarter to a half above the control has no call in these data; cut-offs in other NCI protocols can differ. Some T/C values carry the count of animals alive at the toxicity check (mostly the fifth day); without a count, all were alive then.

Take `CC1(C)N=C(N)N=C(N)N1c1ccc(OCCNS(=O)(=O)c2cccc(S(=O)(=O)F)c2)c(Cl)c1`: the T/C under setting [1] was 126 % of control. Besides, the survivor count by setting is: under setting [2], 9 of 10; under setting [3], 0 of 10.

Regarding `CCOC(Cl)CCl` (centres undefined), under setting [4], the survivor count is 9 of 10.

`O=CC(NC(=O)N(CCCl)N=O)C(O)C(O)C(O)CO` (centres undefined): the T/C was 144 % of control (dose: 1.0 mg/kg/injection, schedule: Q01DX009 (ip), vehicle: saline); 106 [9 of 10 alive], 111 [8 of 10 alive], 125, 181, 183, 188, 199, 208 % of control (dose: 1.87 mg/kg/injection, schedule: Q01DX009 (ip), vehicle: saline); 142 % of control (dose: 1.88 mg/kg/injection, schedule: Q01DX009 (ip), vehicle: saline); 147 % of control under setting [5]; 162 % of control (dose: 3.75 mg/kg/injection, schedule: Q01DX009 (ip), vehicle: saline, evaluated on day 45); 126, 127, 160, 188, 213, 223, 279, 288 % of control (dose: 3.75 mg/kg/injection, schedule: Q01DX009 (ip), vehicle: saline, evaluated on day 60). Also, the T/C reads like this: (dose: 6.8 mg/kg/injection, schedule: Q01DX009 (ip), vehicle: saline) 138 % of control; (dose: 7.5 mg/kg/injection, schedule: Q01DX009 (ip), vehicle: saline, evaluated on day 45) 241 % of control; (dose: 7.5 mg/kg/injection, schedule: Q01DX009 (ip), vehicle: saline, evaluated on day 60) 95 [9 of 10 alive], 137, 211, 230, 259, 331 % of control; (dose: 13.0 mg/kg/injection, schedule: Q01DX001 (ip), vehicle: saline) 126 % of control. The survivor count is 10 of 10 (dose: 7.5 mg/kg/injection, schedule: Q01DX009 (ip), vehicle: saline); 8 of 10, 9 of 10, 10 of 10 (2×) (dose: 15.0 mg/kg/injection, schedule: Q01DX009 (ip), vehicle: saline); 10 of 10 (dose: 16.0 mg/kg/injection, schedule: Q01DX009 (ip), vehicle: saline); 2 of 10, 5 of 10, 9 of 10 (2×), 10 of 10 (dose: 30.0 mg/kg/injection, schedule: Q01DX009 (ip), vehicle: saline); 10 of 10 (dose: 32.0 mg/kg/injection, schedule: Q01DX009 (ip), vehicle: saline); 8 of 10 on day 6 (dose: 50.0 mg/kg/injection, schedule: Q01DX001 (ip), vehicle: saline). Besides, the survivor count is, setting by setting: (dose: 60.0 mg/kg/injection, schedule: Q01DX001 (ip), vehicle: saline with Tween-80) 10 of 10; (dose: 67.0 mg/kg/injection, schedule: Q01DX001 (ip), vehicle: saline) 8 of 12; (dose: 100.0 mg/kg/injection, schedule: Q01DX001 (ip), vehicle: saline) 1 of 10 on day 6; (dose: 120.0 mg/kg/injection, schedule: Q01DX001 (ip), vehicle: saline with Tween-80) 3 of 10.

`CCCCCC(C)(O)CCCCC`: the survivor count under setting [6] is 8 of 10.

As for `S=C(NNc1ccccc1)Nc1ccccc1`, the survivor count is given as 9 of 10 under setting [7] and 5 of 10 under setting [8].

On to `COc1cccc2c1C(=O)c1c(O)c3c(c(O)c1C2=O)C[C@@](O)(C(=O)COC(=O)Cc1ccccc1)C[C@@H]3OC1CC(N)C(O)C(C)O1` (some centres undefined), for which the survivor count was 10 of 10 (dose: 4.0 mg/kg/injection, schedule: Q01DX009 (ip), vehicle: saline with Tween-80); 10 of 10 (dose: 8.0 mg/kg/injection, schedule: Q01DX009 (ip), vehicle: saline with Tween-80); 3 of 10 and 9 of 10 (dose: 16.0 mg/kg/injection, schedule: Q01DX009 (ip), vehicle: saline with Tween-80).

Consider `Cc1ccc2c(C)c3c(ccc4ccccc43)c[n+]2c1`, for which the survivor count is, setting by setting: (dose: 1.25 mg/kg/injection, schedule: Q01DX009 (ip), vehicle: saline with Tween-80) 6 of 6; (dose: 10.0 mg/kg/injection, schedule: Q01DX009 (ip), vehicle: saline with Tween-80) 4 of 6; under setting [9], 0 of 6.

Regarding `O=C1C(N2CCN(CCO)CC2)=C(N2CC2)C(=O)C(N2CCN(CCO)CC2)=C1N1CC1`, the survivor count under setting [5] is on record as 10 of 10.

Turning to `CNCCOC(c1ccccc1)c1ccccc1C` (centres undefined), the survivor count by setting is: (dose: 100.0 mg/kg/injection, schedule: Q01DX009 (ip), vehicle: saline) 1 of 10; (dose: 200.0 mg/kg/injection, schedule: Q01DX009 (ip), vehicle: saline) 0 of 10; under setting [6], 0 of 10.

Regarding `FC(F)(F)c1ccc(Cl)c(NC2=NCCCS2)c1`, the survivor count under setting [8] is reported as 10 of 10.

Consider `ClC=P(c1ccccc1)(c1ccccc1)c1ccccc1`, for which the survivor count reads like this: under setting [10], 10 of 10; under setting [1], 10 of 10; under setting [2], 10 of 10. For the same compound, the T/C is, setting by setting: under setting [11], 145 % of control; (dose: 200.0 mg/kg/injection, schedule: Q04DX003 (ip), vehicle: saline with Tween-80) 142 % of control.

With `Cc1cc([NH-])c([NH-])cc1C.[Cl][Pt+2][Cl]`, under “dose: 5.0 mg/kg/injection, schedule: Q01DX009 (ip), vehicle: saline with Tween-80”, the T/C was 134 % of control. Further, the survivor count under setting [9] is 9 of 10.

Regarding `CC(=O)[C@H]1CC[C@H]2[C@@H]3C[C@H](C)C4=CC(=O)CC[C@]4(C)[C@H]3C(=O)C[C@]12C`, the survivor count (dose: 800.0 mg/kg/injection, schedule: Q01DX009 (ip), vehicle: Klucel (hydroxypropylcellulose) (HPC)) was 1 of 6.

Consider `CC(C)COC(=O)c1ccc(NC(=O)Nc2ccccc2Cl)cc1`, for which the survivor count is given as 10 of 10 under setting [4], 10 of 10 under setting [1] and 10 of 10 under setting [2].

`CC1(C)N=C(N)N=C(N)N1c1ccc(OCc2ccc(C(=O)Nc3cccc(S(=O)(=O)F)c3)cc2)c(Cl)c1`: the T/C is, setting by setting: (dose: 25.0 mg/kg/injection, schedule: Q04DX003 (ip), vehicle: saline with Tween-80) 127 % of control; under setting [10], 140 % of control; under setting [11], 129 % of control. Moreover, the survivor count reads like this: (dose: 100.0 mg/kg/injection, schedule: Q04DX003 (ip), vehicle: saline) 6 of 6; (dose: 200.0 mg/kg/injection, schedule: Q04DX003 (ip), vehicle: saline) 6 of 6; (dose: 400.0 mg/kg/injection, schedule: Q04DX003 (ip), vehicle: saline) 1 of 6.

Take `O=S(=O)(O)O`: the survivor count is 10 of 10 under setting [7] and 0 of 10 under setting [8].

With `O=C1c2ccccc2-c2ncccc21`, the survivor count by setting is: under setting [7], 6 of 10; under setting [8], 0 of 10; (dose: 400.0 mg/kg/injection, schedule: Q01DX009 (ip), vehicle: Klucel (hydroxypropylcellulose) (HPC)) 10 of 10.

Take `N=P(N[P+](N)(c1ccccc1)c1ccccc1)(c1ccccc1)c1ccccc1`: the survivor count is, setting by setting: (dose: 6.25 mg/kg/injection, schedule: Q01DX009 (ip), vehicle: saline) 8 of 10; under setting [12], 8 of 10; (dose: 25.0 mg/kg/injection, schedule: Q01DX009 (ip), vehicle: saline) 0 of 10; (dose: 50.0 mg/kg/injection, schedule: Q01DX009 (ip), vehicle: saline) 0 of 10.

Regarding `Cc1ccc(N=NN(C)C)cc1`, the survivor count under setting [1] was 9 of 10.

On to `CCOC(=O)C(C)(C)Oc1ccc(Cl)cc1`, for which the survivor count is, setting by setting: under setting [2], 10 of 10; under setting [3], 7 of 10 and 10 of 10.

Turning to `C=C1C(=O)O[C@@H]2[C@H](O)[C@@H](C)[C@@H]3C=CC(=O)[C@@]3(C)[C@H](OC(=O)C=C(C)C)[C@H]12`, under setting [12], the survivor count is reported as 6 of 10.

For the compound `CCOC(=O)NC(C(=O)OC)C(=O)OC`, the survivor count under setting [7] is reported as 10 of 10.
